Data as given in paper doi:10.1101/388868.

Key:
[1] = target: T1, FLAG-UNC-10 (aa 1-601), wild type (C. elegans) (UniProt Q22366); experiment: co-IP
T1 sequence: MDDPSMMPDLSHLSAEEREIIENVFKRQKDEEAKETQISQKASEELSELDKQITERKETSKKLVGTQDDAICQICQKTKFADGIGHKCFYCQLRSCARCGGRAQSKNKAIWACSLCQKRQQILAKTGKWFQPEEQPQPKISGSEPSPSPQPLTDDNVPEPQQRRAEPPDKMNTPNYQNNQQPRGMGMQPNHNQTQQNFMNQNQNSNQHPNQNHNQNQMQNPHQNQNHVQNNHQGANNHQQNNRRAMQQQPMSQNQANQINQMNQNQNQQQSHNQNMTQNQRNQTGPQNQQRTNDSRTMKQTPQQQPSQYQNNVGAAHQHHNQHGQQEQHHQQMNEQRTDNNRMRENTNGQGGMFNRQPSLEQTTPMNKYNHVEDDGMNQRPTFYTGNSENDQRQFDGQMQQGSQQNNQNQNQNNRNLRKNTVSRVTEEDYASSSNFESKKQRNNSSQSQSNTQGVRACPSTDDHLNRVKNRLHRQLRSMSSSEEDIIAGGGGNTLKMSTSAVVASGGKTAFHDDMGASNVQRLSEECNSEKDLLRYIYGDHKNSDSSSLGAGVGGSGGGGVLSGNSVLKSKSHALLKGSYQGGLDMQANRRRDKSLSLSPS

[2] = target: T2, UNC-10(K77/79E) (aa 1-601) used in the co-immunoprecipitation (C. elegans) (UniProt Q22366); experiment: co-IP
T2 sequence: T1 sequence with K77E, K79E

Substance: HA-LNTD (aa 1-605) of UNC-13L (C. elegans) (domain or fragment)
- binding [1]: binds
- binding [2]: no binding

Where a chain is given by its changes, count along the chain named. No constants are given. Whether binding was seen depends on the method and setting. In cells and extracts the contact can be indirect. For some assays here: Binding calls can cover weak binding; strength is not graded here. For some assays here: Tags and fused reporters may be left off the sequences shown.
